{"source": "paper PMC6273488", "about": "“Synthesis and Biological Evaluation of Benzochromenopyrimidinones as Cholinesterase Inhibitors and Potent Antioxidant, Non-Hepatotoxic Agents for Alzheimer’s Disease” (Molecules, 2016)", "assay": "in vitro", "settings": "PAMPA, pH 7.4", "protocol": "Penetration across the BBB is an essential property for compounds targeting the CNS. […] The filter membrane of the donor plate was coated with PBL (Polar Brain Lipid, Avanti, AL, USA) in dodecane (4 µL of 20 mg/mL PBL in dodecane) and the acceptor well was filled with 300 µL of PBS pH 7.4 buffer ([…]). Tested compounds were dissolved first in DMSO and that diluted with PBS pH 7.4 to reach the final concentration 100 µM in the donor well. […] 300 µL of the donor solution was added to the donor wells ([…]) and the donor filter plate was carefully put on the acceptor plate so that coated membrane was “in touch” with both donor solution and acceptor buffer. Test compound diffused from the donor well through the lipid membrane (Area = 0.28 cm^2) to the acceptor well. The concentration of the drug in both donor and the acceptor wells was assessed after 3, 4, 5 and 6 h of incubation in quadruplicate using the UV plate reader Synergy HT (Biotek, Winooski, VT, USA) at the maximum absorption wavelength of each compound."}
{"compound": "CC(C)NCC(O)COc1ccc(CC(N)=O)cc1", "note": "(stereo not shown) [Atenolol]", "values": [{"measurement": "Papp at 100 µM", "result": "1.02 ± 0.37", "unit": "×10⁻⁶ cm/s"}]}
